Data source: PubChem BioAssay AID1159584 (Peter MacCallum Cancer Centre, 2016)
Here is a random part of about 18,000 reagents tested. Further read-outs or replicates are left out here. Not given: the amount of reagent, the time to read-out.

- Assay: 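Genes that CDH1-null MCF10A cells selectively depend on to survive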 (primary screen)
- Cell system: human MCF10A breast epithelial cells, parental and CDH1-null
- Knock-down reagent: siRNA against human genes
- Measurement: 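Cell viability by CellTiter-Glo ATP luminescence, each line scaled to the mean of mock wells across plates, then CDH1-null over parental ratio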
- Scale: CDH1-null / parental viability ratio: higher = CDH1-null cells survive relatively better than parental

With OR14J1 (GeneID 442191), how do the results read?
CDH1-null / parental viability ratio: 1.08

How did the screen score PHLDA1 (GeneID 22822)?
CDH1-null / parental viability ratio: 1.16

With DOK7 (GeneID 285489), what was measured?
CDH1-null / parental viability ratio: 1.18

What is on record for NOP10 (GeneID 55505)?
CDH1-null / parental viability ratio: 0.9

What did the screen give for ZFP69 (GeneID 339559)?
CDH1-null / parental viability ratio: 0.92

For AASDHPPT (GeneID 60496), what was measured?
CDH1-null / parental viability ratio: 0.96

With PTTG1IP (GeneID 754), what was measured?
CDH1-null / parental viability ratio: 0.98

Which result is listed for TMC1 (GeneID 117531)?
CDH1-null / parental viability ratio: 1.21

What is on record for ATP8A2 (GeneID 51761)?
CDH1-null / parental viability ratio: 0.85

With PAFAH1B2 (GeneID 5049), what was measured?
CDH1-null / parental viability ratio: 0.94

For OR10H2 (GeneID 26538), what was measured?
CDH1-null / parental viability ratio: 1.13

How did the screen score CLPTM1 (GeneID 1209)?
CDH1-null / parental viability ratio: 1.13

How did the screen score CNTN3 (GeneID 5067)?
CDH1-null / parental viability ratio: 0.92

What is on record for FAM153CP (GeneID 653316)?
CDH1-null / parental viability ratio: 1.36

4 of these entries, reformatted.
gene | CDH1-null / parental viability ratio
AASDHPPT (GeneID 60496) | 0.96
PTTG1IP (GeneID 754) | 0.98
TMC1 (GeneID 117531) | 1.21
ATP8A2 (GeneID 51761) | 0.85

The listing continues:
What did the screen give for ZNF34 (GeneID 80778)?
CDH1-null / parental viability ratio: 1.16

What did the screen give for NPC1 (GeneID 4864)?
CDH1-null / parental viability ratio: 1.18

What did the screen give for SSX2 (GeneID 6757)?
CDH1-null / parental viability ratio: 0.83

How did the screen score SWSAP1 (GeneID 126074)?
CDH1-null / parental viability ratio: 0.95

For EMC4 (GeneID 51234), what does the deposit list?
CDH1-null / parental viability ratio: 0.86

What is on record for ASB16-AS1 (GeneID 339201)?
CDH1-null / parental viability ratio: 0.98

For RAB6A (GeneID 5870), what does the deposit list?
CDH1-null / parental viability ratio: 1.1

How did the screen score RARS1 (GeneID 5917)?
CDH1-null / parental viability ratio: 0.98

How did the screen score ASPHD2 (GeneID 57168)?
CDH1-null / parental viability ratio: 0.91

What did the screen give for IFNA8 (GeneID 3445)?
CDH1-null / parental viability ratio: 0.85

Which result is listed for DDX39A (GeneID 10212)?
CDH1-null / parental viability ratio: 0.89

With TP73 (GeneID 7161), what does the deposit list?
CDH1-null / parental viability ratio: 1.05

For CNPY3 (GeneID 10695), how do the results read?
CDH1-null / parental viability ratio: 1.1

For AOX1 (GeneID 316), what does the deposit list?
CDH1-null / parental viability ratio: 0.69

How did the screen score STAT4 (GeneID 6775)?
CDH1-null / parental viability ratio: 0.91

How did the screen score BSPRY (GeneID 54836)?
CDH1-null / parental viability ratio: 1.14

With SGK1 (GeneID 6446), how do the results read?
CDH1-null / parental viability ratio: 1.11

How did the screen score CFAP184 (GeneID 257236)?
CDH1-null / parental viability ratio: 0.88

What did the screen give for UBXN10 (GeneID 127733)?
CDH1-null / parental viability ratio: 1.08

Which result is listed for PADI2 (GeneID 11240)?
CDH1-null / parental viability ratio: 0.89

For GNB1L (GeneID 54584), what does the deposit list?
CDH1-null / parental viability ratio: 0.92
